Data from PubChem BioAssay AID493066 (National Center for Advancing Translational Sciences (NCATS), 2011).
This list was built around the results that the source calls inconclusive (neither active nor inactive); the mix of calls is not that of the screen. Potencies of inconclusive entries are doubtful fits and often do not repeat. The source made the active and inactive calls. Calls follow the shape of the dose curve; as a rule, active = well fitted cell-killing curve with a large enough effect; inconclusive = small, poorly fitted or top-dose-only effect; inactive = flat fitted curve, though single readings scatter.

Assay: HBEC Cell Viability Secondary Assay for qHTS Assay for Epigenetic Modulators
Settings: HBEC normal bronchial cells viability, ATP luminescence, 72 h; series mostly up to 46.1 µM
Source text: NIH Molecular Libraries Screening Centers Network [MLSCN] NIH Chemical Genomics Center [NCGC] MLSCN Grant: 1 X01 MH079860-01 Assay Provider: Elisabeth D. Martinez, University of Texas SW Medical Center NCGC Assay Overview: This secondary assay characterizes selected actives identified in the qHTS of the Locus Derepression (LDR) assay (PubChem AID 1865). The LDR assay detects the derepression of a GFP reporter that is stably integrated in a region of the genome of murine c127i mammary cells that is presumably silenced. Compounds that cause derepression of the locus to express GFP are identified by enumerating GFP positive cells using a laser-scanning microplate cytometer. Selected LDR actives were assayed for killing of HBEC, a patient-derived normal bronchial epithelial line matched to HCC4017 (Pubchem AID XXX), a nonsmall cell lung carcinoma line from the same patient. The HBEC line assays the cytoxicity of test compounds on normal lung cells. Cell viability was measured using a luminescence-based detection reagent that measures cellular ATP levels.
NCGC Assay Protocol Summary HBEC cells were seeded at 125 cells/5 uL/well in white, solid bottom, 1536 well plates (Greiner). After 16-hour incubation at 37deg C and 5% CO2, 23 nL of compound were transferred into the assay plate via a pin tool. Plates were incubated 72 hours at 37deg C and 5% CO2, then 3.5 uL/well CellTiter-Glo(R) (Promega) detection reagent was added, plates were incubated at ambient temperature for 10 minutes and luminescence was measured by a ViewLux (Perkin Elmer) reader. For further details, see Johnson, RL, Huang, W, Jadhav, A, Austin, CP, Inglese, J, Martinez, ED (2008). A quantitative high-throughput screen identifies potential epigenetic modulators of gene expression. Anal Biochem 375: 237-48. […]

| Structure (SMILES) | Potency |
| --- | --- |
| CN(c1ccccc1)S(=O)(=O)c1nnc(NC(=O)c2ccccc2)s1 | inconclusive: 22.3 µM [cytotoxic, partial curve] |
| CCc1ccc(NC(=O)C2CCC(CNS(=O)(=O)c3ccc4c(c3)CC(C)N4C(C)=O)CC2)cc1 (configuration not stated) | inconclusive: 7.05 µM [cytotoxic, full curve] |
| O=C1C=C(Nc2ccc(Cl)cc2)C(=O)N1c1ccc(Cl)cc1 | inactive |
| CSc1nsc(/C=C/Nc2cccc(Cl)c2)c1C#N | inconclusive: 7.05 µM [cytotoxic, partial curve] |
| O=C1CN(c2nc(-c3ccccc3)c3cc(Cl)ccc3n2)c2ccccc2N1 | inconclusive: 7.05 µM [cytotoxic, partial curve, poor fit] |
| CCN(CC)CCCNC(=O)CSc1c2c(nc3cc(Cl)ccc13)CCCC2 | active: 19.9 µM |
| COc1ccc2c(C)nc(Nc3nc(-c4ccccc4)cc(=O)[nH]3)nc2c1 | active: 8.88 µM |
| Oc1ccc(Br)cc1C=Nc1ccc2c3c(cccc13)CC2 | inconclusive: 12.5 µM [cytotoxic, partial curve] |
| O=C(N/N=C/c1ccccn1)c1cc(-c2ccc(Cl)cc2)nc2ccccc12 | active: 7.05 µM |
| O=[N+]([O-])/C(C=Nc1ccccc1O)=C\Nc1ccccc1O | active: 28.1 µM |
| O=C(CSc1cccc2cccnc12)N1CCCC1 | inconclusive: 35.3 µM [cytotoxic, single point] |
| S=C(Nc1ccccc1)c1ccccn1 | inactive |
| COCCNC(=S)N/N=C(\C)c1ccccc1O | inactive |
| COc1cccc(N2CCN(S(=O)(=O)c3ccc(-n4cnnn4)cc3)CC2)c1 | inactive |
| Cc1ccc(/C=N/NC(=S)Nc2cccc(S(=O)(=O)N(C)C)c2)o1 | inconclusive: 9.96 µM [cytotoxic, full curve] |
| O=c1c2ccccc2nc(COc2ccccc2)n1/N=C/c1c[nH]c2ccccc12 | inconclusive: 14.1 µM [cytotoxic, partial curve] |
| Oc1c(N=Nc2ccccn2)ccc2ccccc12 | inconclusive: 31.5 µM [cytotoxic, single point] |
